In the supplement of paper PMC10849652 one finds log2 fold change data, which are given here for 33 targets.

By UniProt entry, the sequences of proteins in these tests, tags left out. Where a name states a change or a piece, a line headed by the entry shows the natural chain unless it says otherwise.
UniProt Q6P9F7: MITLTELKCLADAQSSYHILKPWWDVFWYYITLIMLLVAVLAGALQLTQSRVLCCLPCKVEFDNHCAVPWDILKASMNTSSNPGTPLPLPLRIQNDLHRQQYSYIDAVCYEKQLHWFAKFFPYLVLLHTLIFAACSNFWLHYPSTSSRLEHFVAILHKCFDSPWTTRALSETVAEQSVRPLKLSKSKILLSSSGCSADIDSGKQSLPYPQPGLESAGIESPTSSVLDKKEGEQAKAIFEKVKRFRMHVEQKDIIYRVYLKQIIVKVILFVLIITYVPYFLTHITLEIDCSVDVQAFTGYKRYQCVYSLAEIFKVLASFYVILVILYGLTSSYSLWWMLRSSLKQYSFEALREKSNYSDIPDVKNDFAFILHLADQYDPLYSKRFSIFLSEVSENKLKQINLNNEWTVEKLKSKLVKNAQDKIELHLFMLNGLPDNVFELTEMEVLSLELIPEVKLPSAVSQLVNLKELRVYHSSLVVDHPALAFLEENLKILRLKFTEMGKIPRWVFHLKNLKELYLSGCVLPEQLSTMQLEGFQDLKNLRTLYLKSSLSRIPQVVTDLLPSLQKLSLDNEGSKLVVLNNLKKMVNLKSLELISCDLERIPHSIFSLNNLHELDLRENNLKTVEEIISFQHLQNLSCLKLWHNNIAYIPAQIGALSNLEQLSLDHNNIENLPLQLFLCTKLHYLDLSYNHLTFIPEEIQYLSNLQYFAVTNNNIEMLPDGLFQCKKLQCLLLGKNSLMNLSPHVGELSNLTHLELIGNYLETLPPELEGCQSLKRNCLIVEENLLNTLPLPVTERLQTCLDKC
UniProt Q92585: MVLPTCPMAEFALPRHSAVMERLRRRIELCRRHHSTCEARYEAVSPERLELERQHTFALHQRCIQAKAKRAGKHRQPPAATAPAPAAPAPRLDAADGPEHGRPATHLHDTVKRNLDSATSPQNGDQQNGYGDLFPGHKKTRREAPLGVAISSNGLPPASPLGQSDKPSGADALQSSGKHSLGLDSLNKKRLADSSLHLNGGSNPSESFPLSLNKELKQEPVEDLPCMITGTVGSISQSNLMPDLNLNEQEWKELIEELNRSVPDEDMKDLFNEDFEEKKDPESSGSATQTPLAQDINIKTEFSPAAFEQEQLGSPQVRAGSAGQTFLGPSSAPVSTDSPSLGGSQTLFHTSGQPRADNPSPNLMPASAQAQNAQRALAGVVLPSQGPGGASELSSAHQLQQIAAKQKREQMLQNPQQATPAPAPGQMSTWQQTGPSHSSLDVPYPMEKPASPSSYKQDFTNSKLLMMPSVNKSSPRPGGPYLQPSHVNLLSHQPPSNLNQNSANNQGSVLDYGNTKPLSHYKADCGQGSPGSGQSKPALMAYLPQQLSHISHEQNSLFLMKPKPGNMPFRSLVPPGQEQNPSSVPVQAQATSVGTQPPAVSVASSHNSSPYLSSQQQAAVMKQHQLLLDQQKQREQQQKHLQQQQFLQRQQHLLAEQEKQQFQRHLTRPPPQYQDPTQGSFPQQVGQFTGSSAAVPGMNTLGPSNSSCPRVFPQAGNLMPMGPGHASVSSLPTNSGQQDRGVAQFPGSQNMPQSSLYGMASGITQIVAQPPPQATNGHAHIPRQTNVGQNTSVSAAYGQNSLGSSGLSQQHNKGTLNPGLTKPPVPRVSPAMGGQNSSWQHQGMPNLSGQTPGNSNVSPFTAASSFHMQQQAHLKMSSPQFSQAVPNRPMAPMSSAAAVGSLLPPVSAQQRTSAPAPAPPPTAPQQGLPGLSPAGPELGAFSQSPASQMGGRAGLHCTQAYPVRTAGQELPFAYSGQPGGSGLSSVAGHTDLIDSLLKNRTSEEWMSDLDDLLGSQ
UniProt P27816: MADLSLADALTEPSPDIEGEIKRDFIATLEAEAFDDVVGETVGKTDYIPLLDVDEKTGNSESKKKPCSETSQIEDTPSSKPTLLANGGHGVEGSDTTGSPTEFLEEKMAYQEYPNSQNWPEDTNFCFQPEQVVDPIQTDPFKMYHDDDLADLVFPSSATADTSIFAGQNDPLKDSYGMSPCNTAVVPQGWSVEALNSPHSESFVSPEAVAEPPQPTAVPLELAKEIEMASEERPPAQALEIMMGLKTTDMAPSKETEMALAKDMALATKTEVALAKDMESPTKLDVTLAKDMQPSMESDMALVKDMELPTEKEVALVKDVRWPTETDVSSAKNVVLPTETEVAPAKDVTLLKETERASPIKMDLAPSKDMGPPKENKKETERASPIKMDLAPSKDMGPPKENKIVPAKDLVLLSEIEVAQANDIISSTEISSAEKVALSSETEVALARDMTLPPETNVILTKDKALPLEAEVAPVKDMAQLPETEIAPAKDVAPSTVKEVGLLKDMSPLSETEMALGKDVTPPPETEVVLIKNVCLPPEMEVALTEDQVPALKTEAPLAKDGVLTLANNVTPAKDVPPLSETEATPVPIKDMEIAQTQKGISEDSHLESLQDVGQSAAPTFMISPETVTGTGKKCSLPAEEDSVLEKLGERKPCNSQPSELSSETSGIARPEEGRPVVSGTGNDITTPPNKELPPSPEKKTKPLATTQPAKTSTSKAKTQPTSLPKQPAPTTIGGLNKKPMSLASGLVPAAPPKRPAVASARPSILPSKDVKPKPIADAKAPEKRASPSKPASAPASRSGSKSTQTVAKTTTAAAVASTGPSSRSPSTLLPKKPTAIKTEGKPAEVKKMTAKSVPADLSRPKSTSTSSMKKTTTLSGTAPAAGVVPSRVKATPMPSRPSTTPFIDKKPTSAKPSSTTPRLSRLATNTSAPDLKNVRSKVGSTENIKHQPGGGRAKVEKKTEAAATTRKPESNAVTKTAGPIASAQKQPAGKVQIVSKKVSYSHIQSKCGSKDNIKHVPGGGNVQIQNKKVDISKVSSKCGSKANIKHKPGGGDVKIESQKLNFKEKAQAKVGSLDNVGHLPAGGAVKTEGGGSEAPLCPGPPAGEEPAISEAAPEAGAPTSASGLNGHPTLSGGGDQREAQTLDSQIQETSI
UniProt Q15759, whole entry, looked up: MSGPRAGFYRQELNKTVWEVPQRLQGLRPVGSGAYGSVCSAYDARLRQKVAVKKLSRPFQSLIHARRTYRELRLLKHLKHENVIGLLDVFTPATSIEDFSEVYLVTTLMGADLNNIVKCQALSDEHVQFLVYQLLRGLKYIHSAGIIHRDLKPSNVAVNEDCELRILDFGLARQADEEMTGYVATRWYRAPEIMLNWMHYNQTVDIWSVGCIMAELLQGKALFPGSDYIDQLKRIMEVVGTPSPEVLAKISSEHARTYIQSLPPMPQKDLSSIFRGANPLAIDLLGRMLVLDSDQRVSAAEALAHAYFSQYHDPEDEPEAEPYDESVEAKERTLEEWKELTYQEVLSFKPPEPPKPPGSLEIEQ
UniProt Q14766: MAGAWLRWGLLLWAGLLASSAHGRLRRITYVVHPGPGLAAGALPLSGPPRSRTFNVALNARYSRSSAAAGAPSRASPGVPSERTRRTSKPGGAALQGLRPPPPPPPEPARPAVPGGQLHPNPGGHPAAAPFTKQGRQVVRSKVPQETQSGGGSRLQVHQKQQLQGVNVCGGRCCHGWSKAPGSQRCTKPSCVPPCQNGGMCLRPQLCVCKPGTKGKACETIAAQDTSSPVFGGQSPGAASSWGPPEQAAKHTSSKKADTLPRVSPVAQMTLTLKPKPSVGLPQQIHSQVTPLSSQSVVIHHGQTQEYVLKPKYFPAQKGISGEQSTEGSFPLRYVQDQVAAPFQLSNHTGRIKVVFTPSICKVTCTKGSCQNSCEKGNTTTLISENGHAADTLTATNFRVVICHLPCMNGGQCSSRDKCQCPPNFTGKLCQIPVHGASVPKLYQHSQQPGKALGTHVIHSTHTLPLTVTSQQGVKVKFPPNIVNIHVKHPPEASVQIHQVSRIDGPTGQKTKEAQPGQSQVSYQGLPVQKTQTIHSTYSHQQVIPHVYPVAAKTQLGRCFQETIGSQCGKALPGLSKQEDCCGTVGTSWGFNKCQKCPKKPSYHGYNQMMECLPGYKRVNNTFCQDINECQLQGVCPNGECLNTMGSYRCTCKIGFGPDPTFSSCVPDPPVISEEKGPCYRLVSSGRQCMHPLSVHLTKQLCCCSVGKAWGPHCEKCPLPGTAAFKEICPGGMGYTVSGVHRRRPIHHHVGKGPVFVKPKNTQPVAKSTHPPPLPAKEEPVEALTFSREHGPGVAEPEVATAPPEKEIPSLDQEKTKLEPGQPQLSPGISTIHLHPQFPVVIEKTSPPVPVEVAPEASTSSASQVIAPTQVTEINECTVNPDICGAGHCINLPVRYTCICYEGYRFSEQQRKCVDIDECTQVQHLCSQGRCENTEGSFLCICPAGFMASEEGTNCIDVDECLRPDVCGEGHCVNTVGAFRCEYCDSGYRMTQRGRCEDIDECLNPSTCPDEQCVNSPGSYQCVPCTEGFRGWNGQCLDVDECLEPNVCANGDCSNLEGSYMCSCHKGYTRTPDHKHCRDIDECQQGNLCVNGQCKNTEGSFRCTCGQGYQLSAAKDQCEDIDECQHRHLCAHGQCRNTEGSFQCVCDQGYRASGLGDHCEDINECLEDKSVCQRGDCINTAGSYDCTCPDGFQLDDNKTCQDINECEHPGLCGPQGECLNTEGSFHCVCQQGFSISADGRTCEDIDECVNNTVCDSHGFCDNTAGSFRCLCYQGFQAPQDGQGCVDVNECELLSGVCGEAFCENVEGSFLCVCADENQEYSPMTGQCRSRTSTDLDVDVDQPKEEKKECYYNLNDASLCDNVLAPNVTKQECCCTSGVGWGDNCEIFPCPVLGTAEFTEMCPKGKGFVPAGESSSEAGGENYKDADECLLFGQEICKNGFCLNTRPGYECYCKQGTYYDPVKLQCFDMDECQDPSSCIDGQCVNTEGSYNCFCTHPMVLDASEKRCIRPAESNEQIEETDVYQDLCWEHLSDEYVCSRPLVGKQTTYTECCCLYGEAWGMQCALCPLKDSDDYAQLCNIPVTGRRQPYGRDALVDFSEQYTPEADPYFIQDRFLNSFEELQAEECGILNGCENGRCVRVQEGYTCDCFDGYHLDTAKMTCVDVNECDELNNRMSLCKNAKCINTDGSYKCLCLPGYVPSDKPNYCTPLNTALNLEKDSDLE
UniProt Q99759: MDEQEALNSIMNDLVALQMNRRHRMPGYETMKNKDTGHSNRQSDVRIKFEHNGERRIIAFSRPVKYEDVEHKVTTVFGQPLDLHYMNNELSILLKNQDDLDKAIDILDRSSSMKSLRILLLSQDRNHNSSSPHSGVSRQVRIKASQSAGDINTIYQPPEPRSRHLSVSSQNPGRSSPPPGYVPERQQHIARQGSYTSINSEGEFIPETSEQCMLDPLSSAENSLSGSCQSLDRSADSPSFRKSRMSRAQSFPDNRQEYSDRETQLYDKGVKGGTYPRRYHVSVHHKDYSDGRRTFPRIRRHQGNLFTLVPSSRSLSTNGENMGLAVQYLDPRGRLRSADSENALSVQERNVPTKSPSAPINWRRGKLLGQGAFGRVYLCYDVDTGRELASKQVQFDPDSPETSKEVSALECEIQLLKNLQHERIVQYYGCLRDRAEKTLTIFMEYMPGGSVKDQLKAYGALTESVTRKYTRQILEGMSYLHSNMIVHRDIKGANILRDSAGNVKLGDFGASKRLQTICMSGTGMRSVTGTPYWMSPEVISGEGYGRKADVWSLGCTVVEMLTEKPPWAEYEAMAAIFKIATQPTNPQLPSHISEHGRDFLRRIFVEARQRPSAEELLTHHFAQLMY
UniProt P07948: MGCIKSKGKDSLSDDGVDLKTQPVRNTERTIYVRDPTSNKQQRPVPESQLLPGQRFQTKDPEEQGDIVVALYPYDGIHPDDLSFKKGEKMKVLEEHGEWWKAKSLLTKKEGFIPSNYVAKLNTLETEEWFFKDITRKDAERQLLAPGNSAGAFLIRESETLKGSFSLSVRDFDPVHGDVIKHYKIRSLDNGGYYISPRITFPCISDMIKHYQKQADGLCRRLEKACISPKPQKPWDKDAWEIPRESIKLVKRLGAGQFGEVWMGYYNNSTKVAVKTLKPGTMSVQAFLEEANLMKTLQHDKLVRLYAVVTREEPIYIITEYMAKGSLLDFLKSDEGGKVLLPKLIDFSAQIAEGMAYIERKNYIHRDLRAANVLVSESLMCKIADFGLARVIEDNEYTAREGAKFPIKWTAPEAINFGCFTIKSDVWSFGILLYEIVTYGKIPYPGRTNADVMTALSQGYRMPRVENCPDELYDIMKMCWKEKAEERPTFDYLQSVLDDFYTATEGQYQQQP
UniProt Q9UI95, whole entry, looked up: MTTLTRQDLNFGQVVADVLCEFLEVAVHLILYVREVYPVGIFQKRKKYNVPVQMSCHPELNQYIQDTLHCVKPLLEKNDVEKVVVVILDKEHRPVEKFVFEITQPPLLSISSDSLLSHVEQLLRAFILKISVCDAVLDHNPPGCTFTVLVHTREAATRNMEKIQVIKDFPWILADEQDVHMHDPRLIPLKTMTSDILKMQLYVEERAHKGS
UniProt O15525: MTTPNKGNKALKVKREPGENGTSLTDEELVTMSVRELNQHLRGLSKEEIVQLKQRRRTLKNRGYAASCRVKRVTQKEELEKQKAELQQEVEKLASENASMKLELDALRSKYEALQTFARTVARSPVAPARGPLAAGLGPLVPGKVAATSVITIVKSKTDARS

This is one part of the list. Residues, ends and D or L forms follow the SMILES beside them. *: point of attachment. Cbz = O=C(OCc1ccccc1)*

Compound in the first experiment: CC(C)C1=C2N=C(C=C(N2N=C1)NCC3=CC=CC=C3)NCCCCCCN
Put plainly: log2 fold change, soluble protein after heating vs DMSO (PISA); higher = thermal stabilisation; K562 cells, 10 uM, 30 min; active = over 0.2 and 3.5 SD of the protein, either way, in both replicates (recomputed). Summed up: (§1)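 For each measurement, 10 μM compound was applied for 30 min to K562 cells at 2×10^6 cells/mL. Aliquots were heated for 3 min across 48°C-58°C, pooled, and extracted in PBS with 0.5% NP-40 at 4°C; the supernatant after 21,000xg for 90 min was soluble protein. This was quantified by TMTpro 16plex LC-MS/MS with channel sums equalised, and thermal stability was reported relative to control samples from duplicates, on a log2 fold-change scale.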
As for MAP3K20 isoform 2 (UniProt Q9NYL2), the log2 fold change is inactive: 0.089.

Regarding LRRC8B (UniProt Q6P9F7), the log2 fold change was inactive: 0.251.

As to MAML1 (UniProt Q92585), the log2 fold change is inactive: 0.016.

On to MAP4 isoform 5 (UniProt P27816), for which the log2 fold change is inactive: 0.083.

As to MAPK11 (UniProt Q15759), the log2 fold change was inactive: -0.853.

As to MAGED1 isoform 2 (UniProt Q9Y5V3), the log2 fold change was inactive: 0.

Consider LTBP1 isoform 4 (UniProt Q14766), for which the log2 fold change was inactive: 0.22.

As for LRRFIP1 isoform 4 (UniProt Q32MZ4), the log2 fold change was inactive: 0.031.

Regarding MAP7D3 (UniProt Q8IWC1), the log2 fold change is inactive: -0.165.

Regarding MAML2 (UniProt Q8IZL2), the log2 fold change is inactive: -0.021.

Regarding MAP3K3 isoform 2 (UniProt Q99759), the log2 fold change was inactive: -0.074.

Consider LYN isoform 2 (UniProt P07948), for which the log2 fold change was inactive: -0.078.

Consider LTBP4 (UniProt Q8N2S1), for which the log2 fold change was inactive: 0.087.

Regarding MAD2L2 (UniProt Q9UI95), the log2 fold change was inactive: 0.052.

As for MAPT isoform 9 (UniProt P10636), the log2 fold change is inactive: 0.036.

Compound in a further experiment: CC(C)C[C@@H](C=O)NC(=O)[C@H](CC(C)C)NC(=O)[C@H](CC(C)C)NC(=O)OCc1ccccc1
The experiment is described as above. Summed up:
as §1
Consider MAP2K5 (UniProt Q13163), for which the log2 fold change was inactive: -0.238.

Regarding MAPKAP1 (UniProt Q9BPZ7), the log2 fold change is inactive: -0.052.

With LRRC8B (UniProt Q6P9F7), the log2 fold change is inactive: 0.184.

With MAFG (UniProt O15525), the log2 fold change is inactive: 0.247.

As to MAML1 (UniProt Q92585), the log2 fold change was inactive: -0.043.

For the target MAP4 isoform 5 (UniProt P27816), the log2 fold change is inactive: 0.014.

Consider MAPK11 (UniProt Q15759), for which the log2 fold change is inactive: -0.091.

For the target LRRCC1 (UniProt Q9C099), the log2 fold change was inactive: 0.237.

As for LTBP1 isoform 4 (UniProt Q14766), the log2 fold change was inactive: -0.041.

As for MAP7D3 (UniProt Q8IWC1), the log2 fold change was inactive: 0.211.

As for MAML2 (UniProt Q8IZL2), the log2 fold change is inactive: 0.094.

In the case of LYPLA1, A0A087X1K9, the log2 fold change was inactive: -0.123.

As for MAP3K3 isoform 2 (UniProt Q99759), the log2 fold change was inactive: -0.01.

For the target MAF1 (UniProt Q9H063), the log2 fold change is inactive: 0.203.

Compound in a further experiment: CC(C)N(C[C@H]1O[C@@H](n2cnc3c(N)ncnc32)[C@H](O)[C@@H]1O)[C@H]1C[C@@H](CCc2nc3cc(C(C)(C)C)ccc3[nH]2)C1 [pinometostat]
The description is as above. Summed up: as §1
For the target MAP2K5 (UniProt Q13163), the log2 fold change is inactive: -0.051.

As to MAP3K20 isoform 2 (UniProt Q9NYL2), the log2 fold change is inactive: -0.021.

With MAML1 (UniProt Q92585), the log2 fold change was inactive: -0.133.

MAPK11 (UniProt Q15759): the log2 fold change was inactive: -0.111.

Regarding LRRFIP1 isoform 4 (UniProt Q32MZ4), the log2 fold change was inactive: -0.019.

Take MAPK7 (UniProt Q13164): the log2 fold change is inactive: 0.105.

MAPRE3 isoform 2 (UniProt Q9UPY8): the log2 fold change is inactive: -0.101.

MAN2B1 (UniProt M0QYZ1): the log2 fold change is inactive: -0.058.

Take LYN isoform 2 (UniProt P07948): the log2 fold change was inactive: 0.147.

For the target LTBP4 (UniProt Q8N2S1), the log2 fold change was inactive: 0.08.

With MAD2L2 (UniProt Q9UI95), the log2 fold change is inactive: 0.06.

Compound in the next experiment: CC1=C(C(CC(=O)N1)C2=CC=C(C=C2)C(F)(F)F)C(=O)NC3=C(C=C4C(=C3)C=NN4)F
Described as above. Summed up: as §1
Consider LRRC8B (UniProt Q6P9F7), for which the log2 fold change is inactive: -0.144.

As to MANSC1 (UniProt Q9H8J5), the log2 fold change is inactive: 0.09.

As to LTBP1 isoform 4 (UniProt Q14766), the log2 fold change was inactive: 0.016.

With MAP7D3 (UniProt Q8IWC1), the log2 fold change is inactive: 0.019.

Turning to MAGEB10 (UniProt Q96LZ2), the log2 fold change was inactive: -0.291.

With MAP3K3 isoform 2 (UniProt Q99759), the log2 fold change is inactive: 0.072.

Consider LTBP4 (UniProt Q8N2S1), for which the log2 fold change is inactive: -0.051.

With LYST (UniProt Q99698), the log2 fold change is inactive: 0.11.

Compound in the next experiment: CC1=C(C2=C(C=C1)C(=O)C3=CC=CC=C3N2CCCN)C
The experiment is described as above. Summed up:
as §1
On to MAPKAP1 (UniProt Q9BPZ7), for which the log2 fold change is inactive: 0.248.

For MAP3K20 isoform 2 (UniProt Q9NYL2), the log2 fold change was inactive: -0.071.

For MAPK11 (UniProt Q15759), the log2 fold change was inactive: 0.103.

On to MANSC1 (UniProt Q9H8J5), for which the log2 fold change was inactive: -0.07.

For LSM14A, A0A140TA76, the log2 fold change was inactive: 0.104.

Consider LSR isoform 3 (UniProt Q86X29), for which the log2 fold change is inactive: -0.106.

Regarding LRRCC1 (UniProt Q9C099), the log2 fold change was inactive: 0.109.

Regarding LTBP1 isoform 4 (UniProt Q14766), the log2 fold change was inactive: 0.018.

MAPRE3 isoform 2 (UniProt Q9UPY8): the log2 fold change is inactive: 0.109.

MAP3K10 (UniProt Q02779): the log2 fold change was inactive: 0.113.

On to MAGEB10 (UniProt Q96LZ2), for which the log2 fold change is inactive: -0.195.

As to MAP3K3 isoform 2 (UniProt Q99759), the log2 fold change is inactive: 0.068.

For LTBP4 (UniProt Q8N2S1), the log2 fold change was inactive: -0.022.

MAP4K4 isoform 6 (UniProt O95819): the log2 fold change is inactive: 0.143.

Compound in a further experiment: CC1=C(C=C(C=C1)NC(=O)C2=CC(=CC=C2)C(C)(C)C#N)NC3=CC4=C(C=C3)N=CN(C4=O)C
The description is as above. Summed up: as §1
MAP3K20 isoform 2 (UniProt Q9NYL2): the log2 fold change is active: -0.375.

Take LRRC8B (UniProt Q6P9F7): the log2 fold change was inactive: 0.077.

As to MAML1 (UniProt Q92585), the log2 fold change was inactive: -0.05.

MAP4 isoform 5 (UniProt P27816): the log2 fold change was inactive: 0.013.

For the target MARCHF3 (UniProt Q86UD3), the log2 fold change was inactive: 0.001.

In the case of LSR isoform 3 (UniProt Q86X29), the log2 fold change is inactive: -0.232.

Take MAGED1 isoform 2 (UniProt Q9Y5V3): the log2 fold change was inactive: 0.003.

Consider MAP7D3 (UniProt Q8IWC1), for which the log2 fold change was inactive: -0.132.

Consider MAP3K10 (UniProt Q02779), for which the log2 fold change is inactive: -0.311.

MAP3K3 isoform 2 (UniProt Q99759): the log2 fold change was inactive: -0.166.

On to LSR (UniProt M0QZL9), for which the log2 fold change was inactive: -0.324.

Regarding LYN isoform 2 (UniProt P07948), the log2 fold change was inactive: 0.056.

As to LTBP4 (UniProt Q8N2S1), the log2 fold change was inactive: 0.04.

For MAD2L2 (UniProt Q9UI95), the log2 fold change is inactive: -0.099.

MAP4K4 isoform 6 (UniProt O95819): the log2 fold change is inactive: -0.031.

In the case of MAPT isoform 9 (UniProt P10636), the log2 fold change is inactive: -0.004.
